Measurements taken from PubChem BioAssay (NCATS).
The shares of active, inactive and inconclusive entries below differ from those in the screen. A potency beside an inconclusive call is a rough fit, not a confirmed value. Active and inactive are the calls of the source. Calls follow the shape of the dose curve; as a rule, active = well fitted cell-killing curve with a large enough effect; inconclusive = small, poorly fitted or top-dose-only effect, or effect the other way; inactive = flat fitted curve, though single readings scatter.

assay: Cell viability qHTS assay in S16 Pmp22-F2sN cells - Confirmatory screen (AID 1508641); conditions: S16 Schwann cells viability, CellTiter-Glo ATP luminescence, 24 h; series mostly up to 57.5 µM
Procedure, shortened: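 Cells (500-1,000 per well) in phenol red-free DMEM with 10% heat-inactivated FBS were exposed to library compounds for 24 h at 37C, 5% CO2. CellTiter-Glo was added, and after 15 min at room temperature luminescence was imaged by CCD camera.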
Potency is read from the fitted curve at half-maximal effect.

Row | Structure (SMILES) | Potency
1 | Cc1ccc(/C=C/c2onc(C)c2S(=O)(=O)N2CCC(C(=O)NCC(C)c3ccccc3)CC2)cc1 (centres undefined) | inactive
2 | CN(C)CCNC(=O)c1ccc(Cn2c(=O)c3cccn3c3cccnc32)cc1 | inactive
3 | CCC(C)n1c(=N)c(C(=O)NC2CCCC2)cc2c(=O)n3ccccc3nc21 (centres undefined) | inconclusive: 3.43 µM [rising, partial curve, poor fit]
4 | Cc1[nH]c2ccccc2c1C1(O)C(=O)N(Cc2ccccc2)c2ccc(Br)cc21 (centres undefined) | inconclusive: 43.2 µM [cytotoxic, single point]
5 | CCOc1ccc(NC(=O)Cn2c(=O)n(Cc3ccc4c(c3)OCO4)c(=O)c3ccc(C(=O)NC4CCCCC4)cc32)cc1 | inconclusive: 30.6 µM [cytotoxic, single point]
6 | COc1ccc(NC(=O)CCCn2c(=O)c3cccn3c3cccnc32)cc1Cl | inactive
7 | CC(=O)N1CCCc2cc(S(=O)(=O)N3CCCC(C(=O)N4CCN(c5cccc(Cl)c5)CC4)C3)ccc21 (centres undefined) | active: 27.3 µM
8 | CCOC(=O)c1ccc(NC(=O)CSc2nc3c([nH]c4ccccc43)c(=O)n2C)cc1 | inconclusive: 43.2 µM [cytotoxic, single point]
9 | COc1ccc2nc(NC(=O)c3nc(SCc4cccc(C)c4)ncc3Cl)sc2c1 | inconclusive: 21.7 µM [cytotoxic, partial curve]
10 | O=C(CCS(=O)(=O)c1nc(-c2cccs2)cc(C(F)(F)F)n1)Nc1ccc(F)c(Cl)c1 | inconclusive: 4.32 µM [rising, partial curve, poor fit]
11 | COc1ccccc1Nc1nn2c(=O)c3ccc(C(=O)Nc4ccc(F)cc4)cc3nc2s1 | active: 13.7 µM
12 | CCCN1CCN(CCCNC(=O)c2cc3c(Cl)nc4ccccc4c3s2)CC1 | inconclusive: 0.153 µM [rising, full curve, poor fit]
13 | CCc1ccc(C(=O)c2cn(CC(=O)Nc3ccc4c(c3)OCO4)c3ccc(CC)cc3c2=O)cc1 | inconclusive: 43.2 µM [cytotoxic, partial curve, poor fit]
14 | CCc1ccc(-c2nc(CN3CCC(C(=O)NCCc4ccc(Cl)cc4)CC3)c(C)o2)cc1 | inconclusive: 43.2 µM [cytotoxic, single point]
15 | COc1ccc(NC(=O)C2CCCN(c3nnc(C)c4c(C)n(-c5ccccc5)nc34)C2)cc1Cl (centres undefined) | active: 43.2 µM
16 | Cc1cc(C)c(NC(=O)Cn2c(=O)n(Cc3ccc(C(=O)NCc4ccc5c(c4)OCO5)cc3)c(=O)c3ccccc32)c(C)c1 | active: 27.3 µM
17 | COC(=O)c1c(-c2ccc(Cl)cc2)noc1N1CCN(c2cccc(C(F)(F)F)c2)CC1 | inconclusive: 43.2 µM [cytotoxic, single point]
18 | COc1ccc(-n2nc3c(N4CCCC(C(=O)NCCc5ccccc5C)C4)nnc(C)c3c2C)cc1 (centres undefined) | inconclusive: 43.2 µM [cytotoxic, single point]
19 | CCCN1CCN(CCCNC(=O)Cn2c(-c3cccs3)cc3cc(Cl)ccc32)CC1 | inconclusive: 43.2 µM [cytotoxic, single point]

An excerpt of these results, tab-delimited:
Row	Structure (SMILES)	Potency
5	CCOc1ccc(NC(=O)Cn2c(=O)n(Cc3ccc4c(c3)OCO4)c(=O)c3ccc(C(=O)NC4CCCCC4)cc32)cc1	inconclusive: 30.6 µM [cytotoxic, single point]
15	COc1ccc(NC(=O)C2CCCN(c3nnc(C)c4c(C)n(-c5ccccc5)nc34)C2)cc1Cl (centres undefined)	active: 43.2 µM
